Record: PubChem BioAssay AID1224827 (NIAID, 2016)
The deposit covers about 3,800 reagents; below is an unselected part. Of all reagents, about 2,200 (57%) were called active. 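Active means a strong reporter change in either direction; calls are per siRNA, not per gene; qiagen siRNAs gave weaker effects.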 Reagents against one gene are numbered here.

- Assay: 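Retest primary hits on a TNF reporter with six siRNAs per gene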 (follow-up of hits)
- Cell system: RAW264.7 G9 mouse macrophage reporter clone
- Reagents: single siRNA against mouse genes, 100 nM siRNA
- Duration: siRNA for 2 days, then LPS about 16 h
- Challenge: bacterial lipopolysaccharide (LPS), 10 ng/ml, cells fixed after overnight (about 16 h) stimulation
- Detection: 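TNF promoter reporter red fluorescence in nuclei, background subtracted, normalised per plate and to non-targeting control siRNA, as z-scores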
- Direction: TNF reporter z-score, mean and TNF reporter z-score: higher = stronger Tnf promoter reporter signal; gene median z, three same-vendor siRNAs: higher = stronger Tnf reporter signal for the gene
- Rule for the call: 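Active siRNA: replicate-mean z-score of 2 or more, or -2 or less; no calls for control wells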

gene,reagent,"TNF reporter z-score, mean","gene median z, three same-vendor siRNAs","TNF reporter z-score, repeat 1","TNF reporter z-score, repeat 2",activity call
Serpina1b (GeneID 20701),1,-2.25,-4.33,-2.22,-2.27,active
Serpina1b (GeneID 20701),2,-4.72,-4.33,-4.96,-4.48,active
Serpina1b (GeneID 20701),3,-5.09,-4.33,-4.18,-6.01,active
Serpina1b (GeneID 20701),4,0.828,-1.08,2.63,-0.971,inactive
Serpina1b (GeneID 20701),5,-0.675,-1.08,-0.159,-1.19,inactive
Serpina1b (GeneID 20701),6,-2.01,-1.08,-1.23,-2.8,active
Gabrb1 (GeneID 14400),1,4.18,-1.76,1.57,6.78,active
Gabrb1 (GeneID 14400),2,-1.76,-1.76,-1.66,-1.85,inactive
Gabrb1 (GeneID 14400),3,-2.61,-1.76,-2.23,-2.99,active
Gabrb1 (GeneID 14400),4,2.88,2.43,4.75,1.01,active
Gabrb1 (GeneID 14400),5,2.8,2.43,5.78,-0.19,active
Gabrb1 (GeneID 14400),6,2.07,2.43,3.86,0.285,active
Nfatc3 (GeneID 18021),1,8.47,-3.16,7.19,9.75,active
Nfatc3 (GeneID 18021),2,-3.16,-3.16,-2.42,-3.9,active
Nfatc3 (GeneID 18021),3,-5.36,-3.16,-5.6,-5.12,active
Nfatc3 (GeneID 18021),4,1.1,-0.691,3.25,-1.06,inactive
Nfatc3 (GeneID 18021),5,-0.713,-0.691,-1.1,-0.322,inactive
Nfatc3 (GeneID 18021),6,-0.564,-0.691,1.19,-2.32,inactive
Aprt (GeneID 11821),1,-0.777,-2.7,-1.22,-0.33,inactive
Aprt (GeneID 11821),2,-2.7,-2.7,-2.43,-2.97,active
Aprt (GeneID 11821),3,-3.68,-2.7,-3.65,-3.7,active
Aprt (GeneID 11821),4,2.2,1.24,3.06,1.33,active
Aprt (GeneID 11821),5,0.223,1.24,1.71,-1.27,inactive
Aprt (GeneID 11821),6,-0.212,1.24,1.14,-1.56,inactive
Ube2e2 (GeneID 218793),1,3.98,-2.45,3.58,4.38,active
Ube2e2 (GeneID 218793),2,-2.45,-2.45,-0.693,-4.21,active
Ube2e2 (GeneID 218793),3,-4.43,-2.45,-4.35,-4.52,active
Ube2e2 (GeneID 218793),4,1.42,0.759,3.87,-1.03,inactive
Ube2e2 (GeneID 218793),5,0.838,0.759,2.12,-0.446,inactive
Ube2e2 (GeneID 218793),6,0.225,0.759,1.96,-1.51,inactive
Tacc1 (GeneID 320165),1,-3.66,-4.19,-3.64,-3.67,active
Tacc1 (GeneID 320165),2,-4.2,-4.19,-4.06,-4.34,active
Tacc1 (GeneID 320165),3,-4.43,-4.19,-4.55,-4.31,active
Tacc1 (GeneID 320165),4,4.96,0.788,7.73,2.18,active
Tacc1 (GeneID 320165),5,0.229,0.788,1.07,-0.615,inactive
Tacc1 (GeneID 320165),6,-0.438,0.788,0.503,-1.38,inactive
Cryba4 (GeneID 12959),1,-3.97,-4.16,-4.32,-3.61,active
Cryba4 (GeneID 12959),2,-4.48,-4.16,-4.01,-4.95,active
Cryba4 (GeneID 12959),3,-4.58,-4.16,-5.25,-3.9,active
Cryba4 (GeneID 12959),4,3.82,-0.632,7.13,0.521,active
Cryba4 (GeneID 12959),5,-1.18,-0.632,1.05,-3.42,inactive
Cryba4 (GeneID 12959),6,-2.64,-0.632,-1.78,-3.5,active

Continued (2 carried over from the part before).
gene,reagent,"TNF reporter z-score, mean","gene median z, three same-vendor siRNAs","TNF reporter z-score, repeat 1","TNF reporter z-score, repeat 2",activity call
Cryba4 (GeneID 12959),5,-1.18,-0.632,1.05,-3.42,inactive
Cryba4 (GeneID 12959),6,-2.64,-0.632,-1.78,-3.5,active
Abcb1a (GeneID 18671),1,0.323,-3.08,0.933,-0.288,inactive
Abcb1a (GeneID 18671),2,-3.08,-3.08,-4,-2.15,active
Abcb1a (GeneID 18671),3,-5.37,-3.08,-5.51,-5.24,active
Abcb1a (GeneID 18671),4,2.75,0.0899,4.44,1.07,active
Abcb1a (GeneID 18671),5,0.0899,0.0899,0.516,-0.336,inactive
Abcb1a (GeneID 18671),6,-1.05,0.0899,-1.02,-1.08,inactive
Cdc5l (GeneID 71702),1,-1.25,-3.46,-1.22,-1.28,inactive
Cdc5l (GeneID 71702),2,-3.46,-3.46,-2.22,-4.7,active
Cdc5l (GeneID 71702),3,-5.65,-3.46,-5.56,-5.74,active
Cdc5l (GeneID 71702),4,2.21,-0.0513,3.67,0.749,active
Cdc5l (GeneID 71702),5,-0.0513,-0.0513,0.62,-0.723,inactive
Cdc5l (GeneID 71702),6,-2.53,-0.0513,-2.8,-2.27,active
Klra19 (GeneID 93971),1,3.53,-1.29,3.76,3.31,active
Klra19 (GeneID 93971),2,-1.4,-1.29,-1.43,-1.37,inactive
Klra19 (GeneID 93971),3,-2.55,-1.29,-1.21,-3.89,active
Klra19 (GeneID 93971),4,1.79,1.13,2.43,1.15,inactive
Klra19 (GeneID 93971),5,1.41,1.13,3.28,-0.459,inactive
Klra19 (GeneID 93971),6,0.39,1.13,1.11,-0.333,inactive
Hdac7 (GeneID 56233),1,8.26,1.5,4.76,11.8,active
Hdac7 (GeneID 56233),2,1.5,1.5,-0.26,3.26,inactive
Hdac7 (GeneID 56233),3,-4.95,1.5,-5.05,-4.86,active
Hdac7 (GeneID 56233),4,-0.00429,-1.77,0.148,-0.156,inactive
Hdac7 (GeneID 56233),5,-1.77,-1.77,-1.76,-1.79,inactive
Hdac7 (GeneID 56233),6,-2.69,-1.77,-2.22,-3.17,active
Or2t46 (GeneID 258261),1,1.79,1.45,-0.161,3.74,inactive
Or2t46 (GeneID 258261),2,1.58,1.45,0.315,2.85,inactive
Or2t46 (GeneID 258261),3,0.46,1.45,-1.66,2.58,inactive
Or2t46 (GeneID 258261),4,-0.56,-1.82,0.36,-1.48,inactive
Or2t46 (GeneID 258261),5,-1.1,-1.82,0.0859,-2.28,inactive
Or2t46 (GeneID 258261),6,-2.47,-1.82,-2.16,-2.79,active
Crebl2 (GeneID 232430),1,-1.92,-3.09,-2.43,-1.4,inactive
Crebl2 (GeneID 232430),2,-2.95,-3.09,-3.74,-2.16,active
Crebl2 (GeneID 232430),3,-4.48,-3.09,-4.51,-4.44,active
Crebl2 (GeneID 232430),4,1.32,-0.0173,3.12,-0.48,inactive
Crebl2 (GeneID 232430),5,0.0253,-0.0173,1.25,-1.2,inactive
Crebl2 (GeneID 232430),6,-0.742,-0.0173,0.445,-1.93,inactive
